This passage reports binding results from paper PMC12583727.

Protein sequences, listed by entry. Tags and fused reporters are not part of them. Lines headed by an entry give the natural chain unless they say otherwise; changes in a name come on top.
UniProt O15550: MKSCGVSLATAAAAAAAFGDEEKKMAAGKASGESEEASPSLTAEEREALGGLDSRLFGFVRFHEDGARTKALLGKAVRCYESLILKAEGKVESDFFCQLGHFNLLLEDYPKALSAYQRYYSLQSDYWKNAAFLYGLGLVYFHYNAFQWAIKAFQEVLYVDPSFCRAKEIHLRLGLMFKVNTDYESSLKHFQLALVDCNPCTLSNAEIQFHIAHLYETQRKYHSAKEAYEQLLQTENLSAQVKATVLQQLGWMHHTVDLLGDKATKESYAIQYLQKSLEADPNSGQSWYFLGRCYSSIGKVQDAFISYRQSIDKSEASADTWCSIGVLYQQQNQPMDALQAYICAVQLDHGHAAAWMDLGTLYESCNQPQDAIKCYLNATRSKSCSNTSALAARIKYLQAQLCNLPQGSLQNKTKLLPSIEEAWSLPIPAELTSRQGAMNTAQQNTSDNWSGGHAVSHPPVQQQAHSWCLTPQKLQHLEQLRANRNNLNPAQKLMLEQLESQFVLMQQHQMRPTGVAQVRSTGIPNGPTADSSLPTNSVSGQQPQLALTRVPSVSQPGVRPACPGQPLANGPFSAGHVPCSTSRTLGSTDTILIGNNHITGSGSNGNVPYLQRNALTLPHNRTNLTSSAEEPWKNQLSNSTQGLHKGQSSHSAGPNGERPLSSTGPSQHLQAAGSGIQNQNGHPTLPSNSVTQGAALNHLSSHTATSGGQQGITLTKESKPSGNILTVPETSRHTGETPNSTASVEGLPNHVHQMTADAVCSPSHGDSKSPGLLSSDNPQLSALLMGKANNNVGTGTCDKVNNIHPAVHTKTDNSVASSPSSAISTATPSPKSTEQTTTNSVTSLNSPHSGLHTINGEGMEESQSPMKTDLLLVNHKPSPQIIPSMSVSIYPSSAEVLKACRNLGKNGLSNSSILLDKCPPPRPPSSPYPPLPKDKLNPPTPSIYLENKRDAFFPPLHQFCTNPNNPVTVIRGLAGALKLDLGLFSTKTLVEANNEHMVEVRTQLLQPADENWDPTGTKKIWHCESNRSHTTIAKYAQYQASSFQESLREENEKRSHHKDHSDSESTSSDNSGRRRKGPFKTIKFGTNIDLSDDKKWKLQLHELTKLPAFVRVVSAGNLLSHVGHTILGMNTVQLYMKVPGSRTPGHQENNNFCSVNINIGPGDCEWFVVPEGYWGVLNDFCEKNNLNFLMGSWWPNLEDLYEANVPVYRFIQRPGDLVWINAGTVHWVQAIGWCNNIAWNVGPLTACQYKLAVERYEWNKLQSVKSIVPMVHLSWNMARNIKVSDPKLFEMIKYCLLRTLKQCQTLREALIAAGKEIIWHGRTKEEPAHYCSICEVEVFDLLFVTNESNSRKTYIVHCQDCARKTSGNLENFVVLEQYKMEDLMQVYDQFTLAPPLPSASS
UniProt P31947: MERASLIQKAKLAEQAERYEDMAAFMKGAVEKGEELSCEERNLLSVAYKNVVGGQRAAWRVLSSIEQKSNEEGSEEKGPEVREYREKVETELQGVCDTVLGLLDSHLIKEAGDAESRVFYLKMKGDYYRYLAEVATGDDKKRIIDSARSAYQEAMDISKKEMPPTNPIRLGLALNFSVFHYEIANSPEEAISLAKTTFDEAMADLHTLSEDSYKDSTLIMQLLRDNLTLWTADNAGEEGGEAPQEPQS

Results are given in words; binding and its absence hold for the method and conditions named. In cells and extracts the contact can be indirect. A yes stands for co-enrichment or nearness to the bait. Other partners may have been found.

The target in this experiment is KDM6A^S829D (phospho-mimic, exogenous) (UniProt O15550). Description: affinity purification with mass spectrometry; HEK293 cells expressing KDM6A phospho-mutants; precipitation with anti-KDM6A antibody, IgG controls; on-bead tryptic digestion, nanoLC-MS/MS; interactors: fold change > 2 and p < 0.05.

Take “Stratifin (SFN), endogenous (from UniProt P31947 1-248)”: the binding entry is listed as “binds”.
